Results are given in words; binding and its absence hold for the method and conditions named. Binding seen in cells or lysates may run through a third protein. Binding can be weak; no strength is given.
Target: GST-HSP90 N-domain
Test: pull-down; GST-PDPK1 domains or GST-HSP90 domains from bacterial lysates on glutathione-Sepharose 4B beads, incubated with cell lysates containing LRRC4; eluted and run on a gel; only the target purified

binding: binds
B1: Leucine-rich repeat (LRR) C4 protein (protein, UniProt Q9HBW1 39-653)
chain: ASAGPQNCPSVCSCSNQFSKVVCTRRGLSEVPQGIPSNTRYLNLMENNIQMIQADTFRHLHHLEVLQLGRNSIRQIEVGAFNGLASLNTLELFDNWLTVIPSGAFEYLSKLRELWLRNNPIESIPSYAFNRVPSLMRLDLGELKKLEYISEGAFEGLFNLKYLNLGMCNIKDMPNLTPLVGLEELEMSGNHFPEIRPGSFHGLSSLKKLWVMNSQVSLIERNAFDGLASLVELNLAHNNLSSLPHDLFTPLRYLVELHLHHNPWNCDCDILWLAWWLREYIPTNSTCCGRCHAPMHMRGRYLVEVDQASFQCSAPFIMDAPRDLNISEGRMAELKCRTPPMSSVKWLLPNGTVLSHASRHPRISVLNDGTLNFSHVLLSDTGVYTCMVTNVAGNSNASAYLNVSTAELNTSNYSFFTTVTVETTEISPEDTTRKYKPVPTTSTGYQPAYTTSTTVLIQTTRVPKQVAVPATDTTDKMQTSLDEVMKTTKIIIGCFVAVTLLAAAMLIVFYKLRKRHQQRSTVTAARTVEIIQVDEDIPAATSAAATAAPSGVSGEGAVVLPTIHDHINYNTYKPAHGAHWTENSLGNSLHPTVTTISEPYIIQTHTKDKVQETQI

— article PMC5732324
